Consider two compounds from patent US20080119483A1, “COMPOSITIONS AND METHODS FOR INHIBITING PROTOZOAN GROWTH” (priority 2006, published 2008).

In experiment [1] the test system is L. major LV39 WT promastigotes. Briefly: microbe, parasite or virus in culture. It is filed as cell-based. The settings on record: Leishmania major, 48 h, read-out: EC50 in WT. The method, then: (§1) Log phase L. major LV39 WT and spt2 promastigotes were inoculated at 1.0×10^5 cells/ml and culture densities were determined 48 hours later.
(§2) Wild type (WT) L. major LV39 clone 5 (Rho/SU/59/P), FV1 (MOHM/IL/80/Friedlin virulent clone 1), spt2^− (Δspt2::HYG/Dspt2::PAC), ads1^− (Δads1::HYG/Dads1::SAT), and spt2^−/+SPT2 (Δspt2::HYG/Dspt2::PAC/+pXG-SPT2) cells were grown in M199 with 10% FBS and supplements as described [Zhang, et al., 2003; Kapler, et al., 1990]. For growth inhibition assays, promastigotes were inoculated at 1.0×10^5 cells/ml (in T25 flasks, 5 ml of medium per flask) in various concentrations of drugs. All cultures contained equivalent amount of DMSO or methanol (0.1% or less, from drug stocks). After 48 or 96 (for ads1^− only) hours, culture densities were determined using a Coulter counter (Z1, Beckman) and effects of drugs on growth were assessed in relative to cultures grown in the absence of drugs.
A classical isobologram was constructed by plotting EC50s of drugs either alone or in combination.

The test system of experiment [2] is L. major spt2^− promastigotes. Briefly: microbe, parasite or virus in culture. It is filed as cell-based, Leishmania major. The settings on record: for EC50: Leishmania major, 48 h, read-out: EC50 in spt2^−. Here is the method: as §1, §2

SMILES strings stand for the structures.

Usually EC50 stands for the midpoint of the concentration-response curve. Regarding `Clc1ccccc1C(c1ccccc1)(c1ccccc1)n1ccnc1` [Clotrimazole], the half-maximal effective concentration (EC50) in experiment [1] stood at 1.5 µM; in experiment [2] it was 0.65 µM. In experiment [2] (ratio), the “EC50 (WT)/EC50 (spt2^−)” value worked out at 2.3. Besides, the “Selectivity against spt2^− parasites (in words)” value in experiment [2] (spt2^− versus LV39 WT) is “did not show such selective activity”.
Take `Clc1ccc(COC(Cn2ccnc2)c2ccc(Cl)cc2Cl)c(Cl)c1` (stereo not drawn) [Miconazole]: the values for the EC50 in experiment [1] and in experiment [2] were 4.3 µM and 0.7 µM, respectively.
